Experimental data taken from patent US20190382732A1.
No constants are given. Whether binding was seen depends on the method and setting. Binding seen in cells or lysates may run through a third protein. Some binding calls cover weakened binding; strength is not graded here. Tags and fused reporters may be left off the sequences shown.

T1: Myomixer (mouse)
T1 chain: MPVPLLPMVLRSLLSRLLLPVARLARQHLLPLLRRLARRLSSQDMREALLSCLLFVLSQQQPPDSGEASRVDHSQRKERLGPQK

T2: FLAG-tagged Myomaker (mouse), Q9D1N4
T2 chain: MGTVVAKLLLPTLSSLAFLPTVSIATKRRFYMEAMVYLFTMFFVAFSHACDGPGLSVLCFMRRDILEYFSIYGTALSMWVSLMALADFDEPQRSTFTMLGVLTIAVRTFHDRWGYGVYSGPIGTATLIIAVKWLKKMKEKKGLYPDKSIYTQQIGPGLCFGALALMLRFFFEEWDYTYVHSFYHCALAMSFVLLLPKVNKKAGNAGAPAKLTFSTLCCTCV

B1: FLAG-tagged Myomaker, Q9D1N4 1-221 (protein, not shown: small tags and cut ends)
chain: T2 chain
B2: Myomixer (peptide)
chain: T1 chain

Assays:
Myomixer (mouse) = target: T1, Myomixer (mouse); assay: co-immunoprecipitation with anti-FLAG M2 resin from lysates of retrovirus-infected cells, western blot; settings: remark: other sources report otherwise
[1] = target: T2, FLAG-tagged Myomaker (mouse), Q9D1N4; assay: co-immunoprecipitation, 10T1/2 cells or C2C12 myoblasts infected with retroviruses expressing Myomixer and/or FLAG-Myomaker; settings: remark: other sources report otherwise

| binding (Myomixer (mouse)) | binding [1] | Binder |
| --- | --- | --- |
| binds |  | B1 |
|  | binds | B2 |
